Results on 6 compounds are retold here after patent publication US11053205B2, “Phenazine derivatives as antimicrobial agents” (University of Florida Research Foundation, Incorporated, priority 2017, dated 2021).

Data set [1] is described as follows: UV-Vis metal(II) binding. Type of data set: physicochemical. Also noted: key: UV-Vis results are reported as “Binding Y/N” for HPs; UV-Vis results are reported as “Binding Y/N” for HPs.
Data set [2] can be described thus: UV-Vis metal(II) binding. Type of data set: physicochemical. More on the design: key: UV-Vis results are reported as “Binding Y/N” for HPs; UV-Vis results are reported as “Binding Y/N” for HPs. The source holds these as a separate data set.
Data set [3] is described as follows: UV-Vis metal(II) binding. Type of data set: physicochemical. Also noted: key: UV-Vis results are reported as “Binding Y/N” for HPs; UV-Vis results are reported as “Binding Y/N” for HPs. The source holds these as a separate data set.
Data set [4] can be described thus: UV-Vis metal(II) binding. Type of data set: physicochemical. Also noted: key: UV-Vis results are reported as “Binding Y/N” for HPs; UV-Vis results are reported as “Binding Y/N” for HPs. This is another data set of the same source.
The next data set deals with HeLa cells. Nature of the data set: LDH release assay for HeLa cytotoxicity. The settings on record: cytotoxicity IC50 divided by the MIC against MRSA-1707. (Release of lactate dehydrogenase indicates damage to the cell membrane.)
The next data set deals with VRE 700221. Briefly: MIC, broth microdilution (CLSI). A general note: In broth dilution the organism is exposed to a series of concentrations in liquid medium.
Another data set deals with MRSA BAA-1707. Nature of the data set: Metal(II)-cation co-treatment MIC assay. Type of data set: cell-based, Staphylococcus aureus. As to conditions: zinc(II) at 200 μM.

Some results are limits rather than exact numbers.

Regarding `Oc1cccc2cccnc12` [8-OHQ, 8-hydroxyquinoline, reference compound], the “Copper(II) Binding Y/N” value in the data set “UV-Vis metal(II) binding [1]” is given as “Y”. Besides, the “Iron(II) Binding Y/N” value in “UV-Vis metal(II) binding [2]” was “Y”. Also, the “Zinc(II) Binding Y/N” value in the data set “UV-Vis metal(II) binding [3]” is recorded as “Y”. For the same compound, in the data set “UV-Vis metal(II) binding [4]”, the “Magnesium(II) Binding Y/N” value is given as “N”.

Take `Cc1ccc2nc3c(O)ccc(Br)c3nc2c1` [Compound 66A]: the “Selectivity Index” value in the data set with HeLa cells was >8.

With `Cc1cc(C)c2nc3c(Br)ccc(O)c3nc2c1` [Compound 68A], the “Selectivity Index” value with HeLa cells is recorded as >21.

For `CCc1cccc2nc3c(O)c(Br)cc(Br)c3nc12` [HP 1-18], the “fold increase in antibacterial activities compared to HP 1” value with VRE 700221 was found to be 2 fold.

For the compound `Oc1c(Br)cc(Br)c2nc3ccc(Cl)cc3nc12` [HP 1-22], the “fold increase in antibacterial activities compared to HP 1” value in the data set with VRE 700221 is recorded as 4 fold.

Take `COCCOCCOCCOCCOC(=O)Oc1c(Br)cc(Br)c2nc3c(C)cccc3nc12` [HP 1-25]: the “fold reduction in MIC with zinc(II) co-treatment” value in the data set on MRSA BAA-1707 is reported as 67 fold.
